From doi:10.1101/2020.03.02.973057
These are yes or no findings as the source states them, for the method shown. In cells and extracts the contact can be indirect. A yes stands for co-enrichment or nearness to the bait. Other partners may have been found. No binding means not detected with the bait. For some of these results: Tags and fused reporters may be left off the sequences shown.

Tests used:
[1] = biological target: T1, XAC1-TAP (eXpression ACtivator 1, Tb927.7.2780, with C-terminal tandem affinity purification tag) (Trypanosoma brucei) (UniProt Q57Y88); assay: affinity purification with mass spectrometry
T1 sequence: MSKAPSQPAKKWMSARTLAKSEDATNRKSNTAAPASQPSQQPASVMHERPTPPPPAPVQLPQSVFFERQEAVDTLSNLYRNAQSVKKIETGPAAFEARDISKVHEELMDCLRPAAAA

[2] = biological target: T2, MKT1L-TAP (Trypanosoma brucei) (UniProt Q38C92); assay: affinity purification with mass spectrometry
T2 sequence: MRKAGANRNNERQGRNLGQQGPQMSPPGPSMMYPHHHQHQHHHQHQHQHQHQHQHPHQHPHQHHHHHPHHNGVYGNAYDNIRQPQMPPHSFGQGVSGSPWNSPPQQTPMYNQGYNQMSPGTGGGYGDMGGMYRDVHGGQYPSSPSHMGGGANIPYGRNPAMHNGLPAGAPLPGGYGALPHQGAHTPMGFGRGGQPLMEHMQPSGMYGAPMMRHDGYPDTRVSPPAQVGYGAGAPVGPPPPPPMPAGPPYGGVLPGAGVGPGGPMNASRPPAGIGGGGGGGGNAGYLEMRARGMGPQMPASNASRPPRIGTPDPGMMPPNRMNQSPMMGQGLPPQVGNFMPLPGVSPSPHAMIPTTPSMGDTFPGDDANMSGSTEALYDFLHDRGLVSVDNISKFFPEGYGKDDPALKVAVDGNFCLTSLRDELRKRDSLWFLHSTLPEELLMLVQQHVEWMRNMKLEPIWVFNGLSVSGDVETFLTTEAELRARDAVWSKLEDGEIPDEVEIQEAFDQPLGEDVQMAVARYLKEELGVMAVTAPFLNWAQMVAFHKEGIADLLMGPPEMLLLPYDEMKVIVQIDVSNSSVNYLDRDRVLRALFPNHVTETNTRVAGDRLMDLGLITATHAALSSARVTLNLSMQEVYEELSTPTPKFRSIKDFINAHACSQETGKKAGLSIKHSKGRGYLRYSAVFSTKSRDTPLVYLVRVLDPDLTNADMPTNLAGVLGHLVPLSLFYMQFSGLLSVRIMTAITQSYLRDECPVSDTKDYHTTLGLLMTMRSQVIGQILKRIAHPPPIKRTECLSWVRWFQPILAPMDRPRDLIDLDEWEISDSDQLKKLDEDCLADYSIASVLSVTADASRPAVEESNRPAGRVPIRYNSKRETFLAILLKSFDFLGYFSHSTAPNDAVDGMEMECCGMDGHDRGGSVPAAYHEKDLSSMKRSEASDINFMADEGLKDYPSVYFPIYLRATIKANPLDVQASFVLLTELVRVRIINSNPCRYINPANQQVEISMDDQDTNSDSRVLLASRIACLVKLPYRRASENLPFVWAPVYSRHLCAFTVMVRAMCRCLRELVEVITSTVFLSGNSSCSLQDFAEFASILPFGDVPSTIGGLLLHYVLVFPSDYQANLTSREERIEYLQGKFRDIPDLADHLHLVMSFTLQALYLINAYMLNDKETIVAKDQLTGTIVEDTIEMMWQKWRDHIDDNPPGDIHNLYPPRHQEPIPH

For CFB2 (from UniProt Q4GYB3), the binding [1] was “binds”.
DHH1 (from UniProt Q38BK1) was tested, and the binding [1] was “binds”.
In the case of PABP1, the binding [1] is reported as “no binding”.
With DRBD3/PTB1 (from UniProt Q38EA2) the binding [1] was “binds”.
In the case of DRBD2 (from UniProt Q38D54), the binding [1] is reported as “binds”.
In the case of EIF4G5 (from UniProt Q57VY5), the binding [1] is reported as “binds”.
For PUF6, the binding [1] was “binds”.
PUF9 (from UniProt Q4GYW2) was tested, and the binding [1] was “binds”.
In the case of Tb927.8.1290 (from UniProt Q57VM6), the binding [1] is reported as “binds”.
G5-IP was tested, and the binding [1] was “binds”.
In the case of initiation complex EIF4E4-G3, the binding [1] is reported as “no binding”.
With EIF4E6 (from UniProt Q57V43) the binding [1] was “binds”.
“translation helicase eIF4A1 (from UniProt Q38F76)” was tested, and the binding [1] was “binds” and the binding [2] was “no binding”.
In the case of SKP1, the binding [1] is reported as “binds”.
ZC3H32 (from UniProt Q38B78) was tested, and the binding [1] was “binds”.
For initiation complex EIF4E3-G4, the binding [1] was “no binding”.
With Tb927.10.15310 the binding [1] was “binds”.
With ZC3H28 the binding [1] was “binds”.
